# Among all 340,000 compounds or so, about 6,200 (1.8%) were called active. Inconclusive means that the source gave no clear call. Such entries were picked first, then a sample of the others. The call rests on the fitted dose curve; in most records, active means well fitted activation curve with a large enough effect; inconclusive means small, poorly fitted or top-dose-only effect; inactive means no such curve, though single readings can be large or run the other way. Potencies beside an inconclusive call are fits to weak or partial responses and may not hold up.
# Assay: A quantitative high throughput screen for small molecules that induce DNA re-replication in SW480 colon adenocarcinoma cells. Further: nearly all actives have a fitted effect of over 55% in size.
# Conditions: Hoechst DNA content imaging, 48 h; series mostly up to 46.1 µM
# Summary of the method: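 First, 250 cells per well were seeded. Next, compound or vehicle (23 nL) was pinned in, plates sat 48 hr at 37 C. Finally Hoechst was added for 40 min before fluorescence scanning.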
# Potency means the concentration at half of the fitted maximal effect.
row,SMILES,Potency
1,COc1ccccc1N(C(=O)c1ccco1)C(C(=O)NC1CCCC1)c1ccc(N2CCOCC2)cc1 (stereo not drawn),inactive
2,Cc1cccc(N2CCN(C(=O)c3ccc(Cl)c(S(=O)(=O)NCc4ccco4)c3)CC2)c1C,"inconclusive: 25.9 µM [activator, single point]"
3,CC(CNC(=O)Cn1cnc2c(OCc3ccccc3)ncnc21)c1ccccc1 (stereo not drawn),inactive
4,CC(C)OCCCNC(=O)COc1ccc2oc3c(c2c1)CCCC3,"inconclusive: 29.1 µM [activator, single point]"
5,CCOc1ccc(NC(=O)CSc2ccc(-c3ccccn3)nn2)cc1,inactive
6,Cc1cc(C)cc(Oc2nc(C(F)(F)F)nc3ccccc23)c1,"inconclusive: 18.4 µM [activator, single point]"
7,N#Cc1c(-n2cccc2/C=N/O)sc2c1CCCC2,inactive
8,CCc1ccc(NC(=O)C2CCN(c3c(N4CCCC4)c(=O)c3=O)CC2)cc1,"inconclusive: 1.46 µM [activator, full curve]"
9,CCOc1ccccc1OCC(=O)Nc1ccc(N2CCOCC2)cc1N1CCOCC1,inactive
10,Oc1ccc(N2CCN(c3ncnc4sc5c(c34)CCC5)CC2)cc1,"inconclusive: 25.9 µM [activator, partial curve, poor fit]"
11,CN1C(=O)CC(c2cn(Cc3ccccc3)c3ccccc23)C1=O (stereo not drawn),inactive
12,CCCCNc1c(-c2cccc(-c3ccc(OC)cc3)c2)nc2ccc(C)cn12,"inconclusive: 29.1 µM [activator, single point]"
13,O=C(COc1ccccc1Cl)NC(=S)N1CCc2ccccc21,"inconclusive: 20.6 µM [activator, single point]"
14,S=C(Nc1ccccn1)c1ccccn1,"inconclusive: 3.66 µM [activator, full curve, poor fit]"
15,Cc1ccc2c(C)nc(Nc3nc(CSc4nnnn4-c4ccccc4)cc(=O)[nH]3)nc2c1,"inconclusive: 29.1 µM [activator, single point]"
16,CCOc1ccc(C(=O)/C=C/Nc2ccc(S(=O)(=O)N=C(N)N)cc2)cc1,"inconclusive: 20.6 µM [activator, partial curve, poor fit]"
17,CCCNCC1C(Oc2ccc(Cl)cc2Cl)C(=O)N1c1cccc(C)c1C (stereo not drawn),"inconclusive: 29.1 µM [activator, single point]"
18,CCN1CCN(c2ccc(NC(=O)c3ccc4c(c3)[nH]c(=O)n4Cc3ccc(F)cc3)cc2)CC1,"inconclusive: 18.4 µM [activator, partial curve, poor fit]"
19,COc1cc(OC)c(OC)cc1/C=C/c1ccnc2ccccc12,"inconclusive: 29.1 µM [activator, single point]"
20,CCCc1cc(-c2nc(N)ncc2-c2csc(C)n2)c(O)cc1OC,inactive
21,COc1ccccc1P(=O)(c1ccccc1)c1ccc([N+](=O)[O-])cc1 (stereo not drawn),inactive
22,Cc1ccc2c(c1)cc(CN(Cc1ccc3c(c1)OCO3)C(=O)c1ccccc1)c1nnnn12,inactive

row,SMILES,Potency
1,CC(=O)Cn1ncc(Br)c(Br)c1=O,active: 3.66 µM
2,NC(=O)c1c(NC(=O)C2COc3ccccc3O2)sc2c1CCN(Cc1ccccc1)C2 (stereo not drawn),"inconclusive: 20.6 µM [activator, single point]"
3,CSc1cccc(NC(=S)NC(=O)CCc2ccccc2)c1,"inconclusive: 29.1 µM [activator, single point]"
4,CCc1ccccc1Nc1nn2c(=O)c3ccc(C(=O)NCc4ccccn4)cc3nc2s1,"inconclusive: 0.231 µM [activator, full curve]"
5,Nc1nc(Nc2ccccc2)nc(NCCO)c1[N+](=O)[O-],"inconclusive: 29.1 µM [activator, single point]"
6,CNC(=O)CN1C(=O)COc2ccc(S(=O)(=O)N3CCCCCC3)cc21,inactive
7,Nc1ccc2nc(-c3cccc(-c4nc5ccc(N)cc5[nH]4)c3)[nH]c2c1,inactive
8,CC1(C)CC[C@]2(C(=O)O)CC[C@]3(C)C(=CC[C@@H]4[C@@]5(C)CC[C@H](O[C@@H]6O[C@H](C(=O)O)[C@@H](O)[C@H](O[C@@H]7OC[C@H](O)[C@H](O)[C@H]7O)[C@H]6O)C(C)(C)[C@@H]5CC[C@]43C)[C@@H]2C1,"inconclusive: 14.6 µM [activator, single point]"
9,Cc1ccc(-n2ccc(=O)c(C(=O)Nc3ccc(S(=O)(=O)N4CCOCC4)cc3)n2)cc1,inactive
10,COC(=O)[C@H](C)NC(=O)Nc1ccc(S(N)(=O)=O)cc1,"inconclusive: 29.1 µM [activator, single point]"
11,COC(=O)c1ccc(-n2nnnc2SCC(=O)Nc2cc(OC)ccc2OC)cc1,inactive
12,O=C(O)CC(NC(=O)/C(=C/c1ccccc1)NC(=O)c1ccccc1)c1ccccc1 (stereo not drawn),"inconclusive: 1.46 µM [activator, single point]"
13,COc1cccc(-c2csc3ncnc(Sc4nnnn4C)c23)c1,active: 0.326 µM
14,Cc1nc(NC(C)c2ccccc2)c2c3c(sc2n1)CCC3 (stereo not drawn),"inconclusive: 20.6 µM [activator, single point]"
15,O=C(CCCN1C(=O)/C(=C/c2cccc(Br)c2)SC1=S)Nc1ccccn1,"inconclusive: 20.6 µM [activator, single point]"
16,COc1ccc(CC(=O)Nc2cc(S(=O)(=O)N3CCOCC3)ccc2N2CCCC2)c(OC)c1,"inconclusive: 0.58 µM [activator, partial curve, poor fit]"
17,Cc1cccc(NC2=NC3(CCCCC3)N=C(N)N2)c1C,inactive
18,Cc1ccc(S(=O)(=O)Nc2nc3ccccc3nc2Nc2cccc(S(=O)(=O)N3CCCC3)c2)cc1,"inconclusive: 11.6 µM [activator, partial curve]"
19,Cc1ncoc1C(=O)N1CCCC(C(=O)c2ccc(Oc3ccccc3)cc2)C1 (stereo not drawn),"inconclusive: 23.1 µM [activator, single point]"
20,CC1CCN(S(=O)(=O)c2ccc(NC(=O)CN3CCCC(C)C3)cc2)CC1 (stereo not drawn),"inconclusive: 20.6 µM [activator, partial curve, poor fit]"
21,CCN(CC)S(=O)(=O)c1ccc(N=Nc2c(C)[nH]n(C(N)=S)c2=O)cc1,inactive

# Structures above with a COOH group, in the order listed:
row,SMILES,Potency
8,CC1(C)CC[C@]2(C(=O)O)CC[C@]3(C)C(=CC[C@@H]4[C@@]5(C)CC[C@H](O[C@@H]6O[C@H](C(=O)O)[C@@H](O)[C@H](O[C@@H]7OC[C@H](O)[C@H](O)[C@H]7O)[C@H]6O)C(C)(C)[C@@H]5CC[C@]43C)[C@@H]2C1,"inconclusive: 14.6 µM [activator, single point]"
12,O=C(O)CC(NC(=O)/C(=C/c1ccccc1)NC(=O)c1ccccc1)c1ccccc1 (stereo not drawn),"inconclusive: 1.46 µM [activator, single point]"

# — PubChem BioAssay AID624297 (National Center for Advancing Translational Sciences (NCATS), 2012)
